Source: article PMC7718258
These are yes or no findings as the source states them, for the method shown. Some entries that bind do so weakly or less than the wild type. Tags and fused reporters may be left off the sequences shown.

Target: T1, His-tagged LAGE3 (human) (UniProt Q14657)
T1 sequence: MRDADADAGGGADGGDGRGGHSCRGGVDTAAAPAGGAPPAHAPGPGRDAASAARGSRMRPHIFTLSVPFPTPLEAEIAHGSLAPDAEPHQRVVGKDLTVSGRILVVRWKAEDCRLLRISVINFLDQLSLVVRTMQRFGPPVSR
Test: co-purification of co-expressed proteins; human 4-subunit KEOPS co-expressed in Sf9 cells; Ni-NTA column by His-tagged LAGE3 and S200 sizing column

TPRKB of the human 4-subunit KEOPS complex (Sf9) (from UniProt Q9Y3C4 1-175)
binding: binds
